Data from PubChem BioAssay AID504467 (National Center for Advancing Translational Sciences (NCATS), 2011).
The campaign covered roughly 330,000 compounds. About 7,700 (2.3%) were called active. Inconclusive results, whose numbers are uncertain, are shown with a selection of clear calls. Calls follow the shape of the dose curve; as a rule, active = well fitted inhibition curve with a large enough effect; inconclusive = small, poorly fitted or top-dose-only effect, or effect the other way; inactive = flat fitted curve, though single readings scatter. Potencies of inconclusive entries are doubtful fits and often do not repeat.
% is scaled to controls: 0 for no effect and ±100 for the full control effect; potency is read from the fitted curve at half-maximal effect.

Experiment: qHTS screen for small molecules that inhibit ELG1-dependent DNA repair in human embryonic kidney (HEK293T) cells expressing luciferase-tagged ELG1; also: nearly all actives have a fitted effect of over 55% in size
Conditions: HEK293T ELG1-luciferase reporter, luminescence, 16 h, DNA damage induced by 5-fluorouridine; activity change, negative = inhibition: at 46.1 µM (top of the series)
In short: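 HEK293T cells expressing luciferase-tagged ELG1 (2,000/well) received 5-Fluorouridine plus compound or DMSO for 16 hr at 37 °C. Luciferase was read by ONE-Glo luminescence after 30 min at room temperature.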
In the case of `O=C(Cc1c(F)cccc1Cl)Nc1ccncc1`, the “activity change, negative = inhibition” value is reported as inactive: -1.25%.
In the case of `COc1cccc(C(=O)N/N=C(\C)c2cccc(NC(=O)c3ccc(F)cc3)c2)c1OC`, the Potency is reported as inconclusive: 29.1 µM [inhibitor, single point].
In the case of `CC(C)(C)NC(=O)C(c1c[nH]c2ccccc12)N(C(=O)Cn1nnc(-c2ccc(F)cc2)n1)c1cccc(O)c1` (configuration not stated), the Potency is reported as inconclusive: 18.4 µM [inhibitor, partial curve, poor fit].
For `COc1ccccc1-n1c(C)cc(/C=C2/C(=N)N3C(=NC2=O)SN=C3S(C)(=O)=O)c1C`, the Potency was inconclusive: 16.4 µM [activator, partial curve].
For `COc1cccc(C2CC(c3ccc(NS(C)(=O)=O)cc3)=NN2C(=O)c2ccccc2)c1OC` (configuration not stated), the Potency was inconclusive: 29.1 µM [inhibitor, single point].
With `COc1cccc(C(CC(=O)O)NS(=O)(=O)c2ccc3c(c2)N(C(C)=O)CC(C)O3)c1` (configuration not stated) the Potency was inconclusive: 18.3 µM [activator, single point].
In the case of `Cc1ccc(-c2[nH]ncc2/C=N/n2c(C)nc3ccccc3c2=O)cc1`, the Potency is reported as active: 9.2 µM.
With `CCOc1cc(C)c(Cl)cc1S(=O)(=O)n1cnc2ccccc21` the “activity change, negative = inhibition” value was inactive: -0.209%.
With `CC1=C(C(=O)Nc2ccccn2)C(c2ccc(Br)cc2)NC(=S)N1` (configuration not stated) the Potency was inconclusive: 18.4 µM [activator, single point].
In the case of `Cc1c(C(=O)N2CCCc3ccccc32)oc2ccc(S(=O)(=O)N3CCOCC3)cc12`, the Potency is reported as inconclusive: 25.9 µM [inhibitor, single point].
In the case of `O=C(NN1C(=O)NC2(CCCCC2)C1=O)c1ccc(-c2ccccc2Cl)o1`, the Potency is reported as inconclusive: 23.1 µM [activator, partial curve, poor fit].
With `COCC(C)NC(=O)NC1(C(F)(F)F)Oc2ccc(Cl)cc2O1` (configuration not stated) the “activity change, negative = inhibition” value was inactive: -2.34%.
With `CCC(C)NC(=O)Cn1c(=O)n(CCCCCC(=O)Nc2ccccc2)c(=O)c2sccc21` (configuration not stated) the Potency was inconclusive: 20.6 µM [activator, single point].
With `COCC(C)n1c(C)cc(C(=O)Cn2nc(C(=O)O)c3ccccc3c2=O)c1C` (configuration not stated) the Potency was inconclusive: 29.1 µM [activator, single point].
For `CCCCNC(=O)c1cc(-c2ccc(OC)c(OC)c2)on1`, the Potency was inconclusive: 29.1 µM [activator, single point].
In the case of `N/C(=N\OC(=O)c1cccc2ccccc12)c1cccnc1`, the Potency is reported as inconclusive: 18.3 µM [activator, partial curve].
With `COC(=O)c1cc(NC(=S)NC(=O)c2ccccc2)ccc1N1CCOCC1` the Potency was inconclusive: 18.3 µM [inhibitor, single point].
In the case of `CCOc1ncccc1C(=O)NCCc1ccc(Cl)cc1`, the Potency is reported as inconclusive: 0.206 µM [inhibitor, single point].
With `CCC(C)N(C(=O)COC(=O)CNC(=O)c1sc2ccccc2c1Cl)C1CCS(=O)(=O)C1` (configuration not stated) the Potency was inconclusive: 29.1 µM [activator, single point].
With `Cc1ccc2c(c1)[C@H]1[C@H](CO2)[C@H](c2ccccc2)[C@]2(C)C(=O)Nc3ccc(Br)cc3C(=O)N12` the Potency was inconclusive: 11.6 µM [inhibitor, partial curve].
For `CC1CCN(c2nc(-c3cccnc3)nc3scc(-c4ccccc4)c23)CC1`, the “activity change, negative = inhibition” value was inactive: 15.3%.
For `CN(C)CCn1cnc2c(c1=N)C(c1ccccc1)c1ccc3ccccc3c1O2` (configuration not stated), the Potency was inconclusive: 20.6 µM [activator, single point].
In the case of `O=C(c1ccccn1)N1CCN(S(=O)(=O)c2ccc3ccccc3c2)CC1`, the “activity change, negative = inhibition” value is reported as inactive: -26.2%.
In the case of `O=C(Nc1ncc(Cc2cccc(Cl)c2)s1)c1cccs1`, the Potency is reported as inconclusive: 17.8 µM [activator, partial curve, poor fit].
With `CCOc1cc(/C=N/NC(=O)c2cccc(S(=O)(=O)N3CCOCC3)c2)ccc1OCC(=O)N(C)C` the Potency was inconclusive: 1.83 µM [activator, partial curve, poor fit].
With `Oc1ccccc1/C=N/c1c(-c2ccco2)nc2ccccn12` the Potency was inconclusive: 1.64 µM [activator, full curve, poor fit].
In the case of `COc1ccc(CCNc2nc(-c3ccco3)cc(C(F)(F)F)n2)cc1OC`, the “activity change, negative = inhibition” value is reported as inactive: -23.6%.
With `Cc1noc(C)c1S(=O)(=O)Nc1ccc2c(c1)CC(=O)N([C@H](C)CO)C[C@H](C)[C@H](CN(C)S(=O)(=O)c1ccc(F)cc1)O2` the Potency was inconclusive: 11.6 µM [inhibitor, partial curve].
With `CC1=NN(C2=NS(=O)(=O)c3ccccc32)C(C)(O)C1` (configuration not stated) the “activity change, negative = inhibition” value was inactive: 26.6%.
With `COc1cc2c(cc1OC)C(Cc1ccc(O)cc1)NCC2` (configuration not stated) the “activity change, negative = inhibition” value was inactive: -8.71%.
With `CN1/C(=C/C2CC(=O)N(c3cccc4ccccc34)C2=O)C(C)(C)c2ccccc21` (configuration not stated) the “activity change, negative = inhibition” value was inactive: -6.78%.
For `O=C(CSc1nc2ccccc2s1)NC(=O)NCc1ccco1`, the “activity change, negative = inhibition” value was inactive: 0%.
For `COc1cc(C(=O)Oc2cccc(/C=N/NC(=O)c3cccnc3)c2)cc(OC)c1OC`, the Potency was inconclusive: 10.3 µM [inhibitor, partial curve].
For `O=C(NCCOCCOCCNC(=O)c1cccnc1)c1cccnc1`, the Potency was inconclusive: 20.6 µM [activator, single point].
For `CCOC(=O)N1CCC(N(C(=O)Nc2cccc(OC)c2)C(C)CC)CC1` (configuration not stated), the “activity change, negative = inhibition” value was inactive: -8.42%.
In the case of `CCOC(=O)C1CCCN(CC(=O)Nc2cc(C)cc(C)c2)C1` (configuration not stated), the “activity change, negative = inhibition” value is reported as inactive: -17%.
For `O=C(COc1ccccc1[N+](=O)[O-])N/N=C/c1ccccn1`, the “activity change, negative = inhibition” value was inactive: 23.1%.
For `Cc1ccc(S(=O)(=O)N2CCC(C(=O)Nc3ccc(C(C)C)cc3)CC2)cc1`, the Potency was inconclusive: 18.3 µM [inhibitor, single point].
In the case of `NC(=O)C1(C(N)=O)OC1c1ccc(Cl)c(Cl)c1` (configuration not stated), the “activity change, negative = inhibition” value is reported as inactive: 1.01%.
With `N#C/C(=C(/O)COc1ccccc1)c1nc2ccccc2s1` the Potency was inconclusive: 29.1 µM [inhibitor, single point].
In the case of `Cc1ccc(NC(=O)COC(=O)CNC(=O)c2ccc(Br)cc2)c(C)c1`, the “activity change, negative = inhibition” value is reported as inactive: 0.322%.
In the case of `Cc1ccc(NC(=O)C(c2ccccc2)c2ccccc2)c(O)c1`, the “activity change, negative = inhibition” value is reported as inactive: -0.987%.
For `Cc1cc(NC(=S)NC(=O)c2ccccc2)ccc1-c1cc2ccccc2oc1=O`, the Potency was inconclusive: 3.26 µM [inhibitor, full curve].
For `COCCCNC(=S)Nc1ccc2c(c1)OCCO2`, the Potency was inconclusive: 14.6 µM [activator, partial curve].
In the case of `Cc1sc2ncnc(Sc3ccccc3C(=O)Nc3ccc(Br)cc3)c2c1C`, the Potency is reported as inconclusive: 0.13 µM [inhibitor, full curve, poor fit].
In the case of `Cc1ccc(NS(=O)(=O)c2cc(C(=O)Nc3cccc([N+](=O)[O-])c3)ccc2C)cc1`, the Potency is reported as inconclusive: 23.1 µM [inhibitor, partial curve].
For `CS(=O)(=O)Nc1ccc(N2CCN(c3ccc(C(F)(F)F)cn3)CC2)nc1`, the Potency was inconclusive: 23.1 µM [inhibitor, single point].
For `S=C(Nc1cccc(Cl)c1)Nc1cccc2cnccc12`, the Potency was inconclusive: 25.9 µM [inhibitor, single point].
With `S=c1nc(-c2ccc(Br)cc2)[nH]c2ccccc12` the Potency was inconclusive: 6.51 µM [activator, partial curve, poor fit].
In the case of `Cc1cc(C)n(-c2ccc(C(=O)Nc3ccc(S(=O)(=O)NCc4ccco4)cc3)cc2)n1`, the Potency is reported as inconclusive: 5.17 µM [inhibitor, single point].
For `COc1ccc(Nc2n[nH]c(C)c2[N+](=O)[O-])cc1`, the Potency was inconclusive: 8.2 µM [activator, partial curve].
In the case of `O=C(/C=C/c1ccccc1)/C=C/c1ccccc1`, the Potency is reported as inconclusive: 29.1 µM [inhibitor, single point].
For `Cc1[nH]n(C(C)(C)C)c(=O)c1Sc1ccccc1`, the Potency was inconclusive: 0.0073 µM [activator, single point].
For `Cc1ccc(NC(=O)COc2ccccc2C(=O)NCc2ccccc2)cc1`, the Potency was inconclusive: 29.1 µM [inhibitor, partial curve, poor fit].
For `COc1cc(NC(=O)c2[nH]cnc2C(N)=O)cc(C(=O)Nc2cccc(C(F)(F)F)c2)c1`, the Potency was active: 5.8 µM.
In the case of `O=C(Oc1ccccc1)c1cccc2cccnc12`, the Potency is reported as inconclusive: 18.4 µM [inhibitor, single point].
For `Cc1cc(S(=O)(=O)Nc2ccc(C(=O)NCCCN3CCCC3=O)cc2)ccc1F`, the “activity change, negative = inhibition” value was inactive: 9.8%.
With `O=C(Nc1ccccc1C(=O)NCc1ccco1)c1ccccc1` the “activity change, negative = inhibition” value was inactive: -16.4%.
For `COc1ccc(CNC(=O)C[C@H]2C[C@H](C(=O)N(C(C)C)C(C)C)[C@@]3(C)c4[nH]c5cc(-c6ccco6)ccc5c4CCN3C2=O)cc1OC`, the Potency was inconclusive: 29.1 µM [inhibitor, single point].
In the case of `CC(=O)Oc1ccc(C(=O)Nc2nnc(C)s2)cc1`, the Potency is reported as inconclusive: 20.6 µM [activator, partial curve].
With `CN1CCN(C(=O)c2ccc(CNS(=O)(=O)c3ccc(F)c(Cl)c3)cc2)CC1` the “activity change, negative = inhibition” value was inactive: 11%.
With `CC(NC(=O)c1ccco1)C(c1cccs1)N1CCN(c2ccc(F)cc2)CC1` (configuration not stated) the Potency was inconclusive: 29.1 µM [inhibitor, single point].
In the case of `COC(=O)c1sccc1NC(=O)Nc1cccc([N+](=O)[O-])c1`, the “activity change, negative = inhibition” value is reported as inactive: 0.204%.
With `COc1ccc(C(=O)N2CCC(n3nnc4cc(F)ccc43)CC2)cc1OC` the Potency was inconclusive: 29.1 µM [inhibitor, single point].
For `CC(C)CNC(=O)c1ccccc1NC(=O)CSCc1ccccc1`, the Potency was inconclusive: 29.1 µM [inhibitor, single point].
In the case of `Cc1cc(CNC(=O)c2ccc3nc(Cc4ccccc4F)oc3c2)nn1C`, the Potency is reported as inconclusive: 18.3 µM [activator, partial curve].
With `Cc1cccc(Nc2nc(-c3ccc(O)cc3O)cs2)n1` the Potency was inconclusive: 0.631 µM [activator, full curve].
